Earlier results as cited in patent US20250161279A1, “METHODS OF TREATING MULTIPLE MYELOMA USING BCL-2 INHIBITOR” (BeiGene Switzerland GmbH, priority 2022, published 2025).
At least one compound was matched to its structure with a doubt left.

Key:
[1] = tested on: patients with relapsed or refractory multiple myeloma; settings: cited from earlier work
[2] = tested on: patients with relapsed/refractory (R/R) MM; settings: monotherapy, cited from earlier work

## CC1(C)CCC(CN2CCN(c3ccc(C(=O)NS(=O)(=O)c4ccc(NCC5CCOCC5)c([N+](=O)[O-])c4)c(Oc4cnc5[nH]ccc5c4)c3)CC2)=C(c2ccc(Cl)cc2)C1 [venetoclax, Venetoclax]
[1]; all patients, venetoclax arm (with bortezomib and dexamethasone), placebo arm not reached
  median OS: 33.5 months
[1]; all patients, venetoclax versus placebo arm
  OS hazard ratio [HR]: 1.46 (0.91, 2.34)
[1]; t (11;14) or BCL-2 high subpopulation, venetoclax versus placebo arm
  OS HR: 0.97 (0.43, 2.17)
[1]; t (11;14) or BCL-2 high subpopulation
  median overall survival: not reached
[2]; all R/R MM patients (10 of 66)
  very good partial response (VGPR) or better: 15%
[2]; all R/R MM patients (14 of 66)
  overall response rate (ORR): 21%
[2]; t (11;14) MM
  patients achieving VGPR: 27%
[2]; t (11;14) subgroup
  ORR in t (11;14) patients: 40%
